Test results reported in patent CN116173202A.
No constants are given. Whether binding was seen depends on the method and setting. Some binding calls cover weakened binding; strength is not graded here.

The chains behind the UniProt entries cited, without tags or fusion partners. Residues count along the entry.
UniProt Q8NHJ6, residues 22-259: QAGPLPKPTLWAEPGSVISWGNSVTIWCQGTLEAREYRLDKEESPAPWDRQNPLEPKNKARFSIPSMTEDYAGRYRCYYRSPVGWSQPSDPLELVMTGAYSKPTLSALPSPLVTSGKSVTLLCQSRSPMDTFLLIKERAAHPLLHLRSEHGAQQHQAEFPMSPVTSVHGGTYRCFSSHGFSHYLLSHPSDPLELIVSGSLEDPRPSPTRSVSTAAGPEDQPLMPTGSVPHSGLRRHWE

B1: MA-Ⅰ 噬菌体单克隆抗体 (phage-displayed single-chain antibody) (scFv, V domains shown)
VH: EVQLQQSGGGLVKPGGSLKLSCAASGFTFSSYTMSWVRQTPEKRLEWVATISSGGTYTYYPDSVKGRFTISRDNAKNTLYLQMSSLKSEDTAMYYCTRDGYDGFDYWGQGTTLTVSS
VL: DIVMTQTTLSLPVSPGDQASISCRSSQSLAHSNGNTYLHWYLQKPGQSPKLLIYKVSNRFSGVPDRFSGSGSGTDFTLKISRVEAEDLGVYFCSQSTLVPTFGGGTKLEIK
B2: MB-Ⅰ 噬菌体单克隆抗体 (phage-displayed single-chain antibody) (scFv, V domains shown)
VH: QVQLQESGAELVKPGASVKLSCKASGYTFTNYWMHWVKQRPGQGLEWIGEINPSNGRTNYNEKFKTKATLTVDKSSSTAYMQLSSLTSEDSAVYYCARWGQLGLREGYYAVDYWGQGTSVTVSS
VL: DIVMTQSPSSLSASLGDRVTISCRASQDISNYLNWYQQKPDGTVKLLIYYTSRLHSGVPSRFSGSGSGTDYSLTISNLEQEDIATYFCQQGNTLPPTFGGGTKLEIK

Biological target: LILRB4抗原 (人LILRB4蛋白胞外段) (human) (UniProt Q8NHJ6)
Test: phage ELISA on coated LILRB4

Binder | binding
B1 | binds
B2 | binds
